# Assay results published in the supplement of paper PMC8728848.
# Some of the results follow.
# B1: Protein L(A-C2) (Finegoldia magna), Q51912 (protein)
# chain: ADEPIDLEKLEEKRDKENVGNLPKFDNEVKDGSENPMAKYPDFDDEASTRFETENNEFEEKKVVSDNFFDQSEHPFVENKEETPETPETDSEEEVTIKANLIFANGSTQTAEFKGTFEKATSEAYAYADTLKKDNGEYTVDVADKGYTLNIKFAGKEKTPEEPKEEVTIKANLIYADGKTQTAEFKGTFEEATAEAYRYADALKKDNGEYTVDVADKGYTLNIKFAGKEKTPEEPKEEVTIKANLIYADGKTQTAEFKGTFEEATAEAYRYADLLAKENGKYTVDVADKGYTLNIKFAGKEKTPEEPKEEVTIKANLIYADGKTQTAEFKGTFAEATAEAYRYADLLAKENGKYTADLEDGGYTINIRFAGKKVDEKPEEKEQVTIKENIYFEDGTVQTATFKGTFAEATAEAYRYADLLSKEHGKYTADLEDGGYTINIRFAGKEEPEETPEKPEVQDGYASYEEAEAAAKEALKNDDVNKSYTIRQGADGRYYYVLSPVEAEEEKPEAQNGYATYEEAEAAAKKALENDPINKSYSIRQGADGRYYYVLSPVEAE
# How the values were obtained:
# Assay in all cases: glycan array binding signal (z-score within array); higher = stronger binding
# Settings in all cases: glycan notation: IUPAC condensed, linker removed
# [1] = molecular target: Neu5Ac(a2-3)Gal(b1-4)GlcNAc(b1-6)GalNAc
# Summary of the method: (§1)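 The Consortium for Functional Glycomics database supplied 3228 glycan arrays, of which those lacking an available protein sequence were dropped. The binding signal, a within-array Z-score, was averaged across arrays of the same protein sequence and across linkers. Negative scores can be read as non-binding.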
# [2] = molecular target: Neu5Ac(a2-3)Gal(b1-4)GlcNAc(b1-6)[Gal(b1-3)]GalNAc
# Summary of the method: as §1
# [3] = molecular target: Neu5Ac(a2-3)Gal(b1-4)GlcNAc(b1-6)[Neu5Ac(a2-3)Gal(b1-3)]GalNAc
# Summary of the method: as §1
# [4] = molecular target: Neu5Ac(a2-3)Gal(b1-4)GlcNAc6S
# Summary of the method: as §1
# [5] = molecular target: Neu5Ac(a2-3)Gal(b1-4)[Fuc(a1-3)]GlcNAc
# Summary of the method: as §1
# [6] = molecular target: Neu5Ac(a2-3)Gal(b1-4)[Fuc(a1-3)]GlcNAc(b1-2)Man
# Summary of the method: as §1
# [7] = molecular target: Neu5Ac(a2-3)Gal(b1-4)[Fuc(a1-3)]GlcNAc(b1-3)Gal
# Summary of the method: as §1
# [8] = molecular target: Neu5Ac(a2-3)Gal(b1-4)[Fuc(a1-3)]GlcNAc(b1-3)Gal(b1-4)GlcNAc
# Summary of the method: as §1
# [9] = molecular target: Neu5Ac(a2-3)Gal(b1-4)[Fuc(a1-3)]GlcNAc(b1-3)Gal(b1-4)[Fuc(a1-3)]GlcNAc(b1-3)Gal(b1-4)[Fuc(a1-3)]GlcNAc
# Summary of the method: as §1
# [10] = molecular target: Neu5Ac(a2-3)Gal(b1-4)[Fuc(a1-3)]GlcNAc(b1-3)GalNAc
# Summary of the method: as §1
# [11] = molecular target: Neu5Ac(a2-3)Gal(b1-4)[Fuc(a1-3)]GlcNAc(b1-6)[Gal(b1-3)]GalNAc
# Summary of the method: as §1
# [12] = molecular target: Neu5Ac(a2-3)Gal(b1-4)[Fuc(a1-3)]GlcNAc(b1-6)[Neu5Ac(a2-3)Gal(b1-3)]GalNAc
# Summary of the method: as §1
# [13] = molecular target: Neu5Ac(a2-3)Gal(b1-4)[Fuc(a1-3)]GlcNAc6S
# Summary of the method: as §1
# [14] = molecular target: Neu5Ac(a2-3)Gal6S(b1-4)GlcNAc
# Summary of the method: as §1
# [15] = molecular target: Neu5Ac(a2-3)Gal6S(b1-4)[Fuc(a1-3)]GlcNAc
# Summary of the method: as §1
# [16] = molecular target: Neu5Ac(a2-3)GalNAc
# Summary of the method: as §1
# [17] = molecular target: Neu5Ac(a2-3)GalNAc(b1-4)GlcNAc
# Summary of the method: as §1
# [18] = molecular target: Neu5Ac(a2-3)[GalNAc(b1-4)]Gal(b1-4)Glc
# Summary of the method: as §1
# [19] = molecular target: Neu5Ac(a2-3)[GalNAc(b1-4)]Gal(b1-4)GlcNAc
# Summary of the method: as §1
# [20] = molecular target: Neu5Ac(a2-3)[GalNAc(b1-4)]Gal(b1-4)GlcNAc(b1-3)GalNAc
# Summary of the method: as §1
# [21] = molecular target: Neu5Ac(a2-3)[Neu5Ac(a2-6)]GalNAc
# Summary of the method: as §1
# [22] = molecular target: Neu5Ac(a2-6)Gal
# Summary of the method: as §1
# [23] = molecular target: Neu5Ac(a2-6)Gal(b1-3)GlcNAc(b1-3)[Gal(b1-4)GlcNAc(b1-6)]Gal(b1-4)Glc
# Summary of the method: as §1
# [24] = molecular target: Neu5Ac(a2-6)Gal(b1-4)Glc
# Summary of the method: as §1
# [25] = molecular target: Neu5Ac(a2-6)Gal(b1-4)GlcNAc
# Summary of the method: as §1
# [26] = molecular target: Neu5Ac(a2-6)Gal(b1-4)GlcNAc(b1-2)Man
# Summary of the method: as §1
# [27] = molecular target: Neu5Ac(a2-6)Gal(b1-4)GlcNAc(b1-2)Man(a1-3)Man(b1-4)GlcNAc(b1-4)GlcNAc
# Summary of the method: as §1
# [28] = molecular target: Neu5Ac(a2-6)Gal(b1-4)GlcNAc(b1-2)Man(a1-3)[Gal(b1-4)GlcNAc(b1-2)Man(a1-6)]Man(b1-4)GlcNAc(b1-4)GlcNAc
# Summary of the method: as §1
# [29] = molecular target: Neu5Ac(a2-6)Gal(b1-4)GlcNAc(b1-2)Man(a1-3)[GlcNAc(b1-2)Man(a1-6)]Man(b1-4)GlcNAc(b1-4)GlcNAc
# Summary of the method: as §1
# [30] = molecular target: Neu5Ac(a2-6)Gal(b1-4)GlcNAc(b1-2)Man(a1-3)[GlcNAc(b1-4)][Neu5Ac(a2-6)Gal(b1-4)GlcNAc(b1-2)Man(a1-6)]Man(b1-4)GlcNAc(b1-4)GlcNAc
# Summary of the method: as §1
binder,measurement,setting,value
B1,glycan array binding signal (z-score),[1],-0.612
same,glycan array binding signal (z-score),[2],-0.007
same,glycan array binding signal (z-score),[3],-0.416
same,glycan array binding signal (z-score),[4],-0.331
same,glycan array binding signal (z-score),[5],-0.888
same,glycan array binding signal (z-score),[6],0.146
same,glycan array binding signal (z-score),[7],-0.95
same,glycan array binding signal (z-score),[8],0.23
same,glycan array binding signal (z-score),[9],-0.249
same,glycan array binding signal (z-score),[10],1.95
same,glycan array binding signal (z-score),[11],2.06
same,glycan array binding signal (z-score),[12],1.52
same,glycan array binding signal (z-score),[13],-0.333
same,glycan array binding signal (z-score),[14],-0.81
same,glycan array binding signal (z-score),[15],-1.05
same,glycan array binding signal (z-score),[16],-1.03
same,glycan array binding signal (z-score),[17],-1.05
same,glycan array binding signal (z-score),[18],-0.886
same,glycan array binding signal (z-score),[19],-0.31
same,glycan array binding signal (z-score),[20],2.78
same,glycan array binding signal (z-score),[21],-0.321
same,glycan array binding signal (z-score),[22],-0.739
same,glycan array binding signal (z-score),[23],-0.793
same,glycan array binding signal (z-score),[24],-0.604
same,glycan array binding signal (z-score),[25],0.237
same,glycan array binding signal (z-score),[26],0.253
same,glycan array binding signal (z-score),[27],-0.807
same,glycan array binding signal (z-score),[28],-0.313
same,glycan array binding signal (z-score),[29],-0.924
same,glycan array binding signal (z-score),[30],0.228

# Shown as tab-separated lines: part of the list above
binder	measurement	setting	value
B1	glycan array binding signal (z-score)	[2]	-0.007
same	glycan array binding signal (z-score)	[18]	-0.886
